The values that follow come from publication PMC7291146.

For this experiment, the target named is myc-AdipoR1 (rat adiponectin receptor-1) (rat). Briefly: co-IP; H9C2 cardiomyoblasts transiently expressing myc-AdipoR1 and FLAG-tagged partners; lysis in 50 mmol/L Tris pH 7.5, 0.5% deoxycholic acid, 0.5% Triton X-100, 10 mmol/L EDTA; 200 ug lysate; myc antibody on protein A/G agarose or FLAG antibody on Dynabeads, 4 °C overnight, five washes; detection with FLAG or myc antibodies.

Results are given in words; binding and its absence hold for the method and conditions named. In cells and extracts the contact can be indirect. Tags and fused reporters may be left off the sequences shown.

B1: FLAG-gC1qR (rat globular C1q receptor) (protein, UniProt O35796 72-279)
chain: LHTEGDKAFVEFLTDEIKEEKKIQKHKSLPKMSGDWELEVNGTEAKLLRKVAGEKITVTFNINNSIPPTFDGEEEPSQGQKAEEQEPELTSTPNFVVEVTKTDGKKTLVLDCHYPEDEIGHEDEAESDIFSIKEVSFQTTGDSEWRDTNYTLNTDSLDWALYDHLMDFLADRGVDNTFADELVELSTALEHQEYITFLEDLKSFVKSQ
Consider B1, for which the binding entry was “no binding”.
